Our source for the binding values is article PMC8013833.

Amino acid sequences for entries named in this document (tags omitted).
UniProt Q9WTL8: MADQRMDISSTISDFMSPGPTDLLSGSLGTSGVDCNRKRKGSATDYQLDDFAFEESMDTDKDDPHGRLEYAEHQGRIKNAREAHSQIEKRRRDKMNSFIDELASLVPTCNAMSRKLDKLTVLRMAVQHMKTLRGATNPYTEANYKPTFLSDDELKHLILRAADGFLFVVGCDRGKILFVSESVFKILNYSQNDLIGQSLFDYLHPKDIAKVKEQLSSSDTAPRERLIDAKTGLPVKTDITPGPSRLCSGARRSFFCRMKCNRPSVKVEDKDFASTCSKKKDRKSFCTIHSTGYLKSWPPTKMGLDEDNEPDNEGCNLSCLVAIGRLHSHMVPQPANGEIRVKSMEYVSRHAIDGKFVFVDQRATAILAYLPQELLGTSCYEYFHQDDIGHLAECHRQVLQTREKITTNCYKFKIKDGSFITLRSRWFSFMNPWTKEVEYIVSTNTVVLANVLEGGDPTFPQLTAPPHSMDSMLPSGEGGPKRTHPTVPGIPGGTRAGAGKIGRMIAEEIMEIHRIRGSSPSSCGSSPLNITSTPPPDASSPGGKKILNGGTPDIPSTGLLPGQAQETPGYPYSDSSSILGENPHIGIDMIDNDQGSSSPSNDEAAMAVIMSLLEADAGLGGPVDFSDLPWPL
UniProt Q8BSK8: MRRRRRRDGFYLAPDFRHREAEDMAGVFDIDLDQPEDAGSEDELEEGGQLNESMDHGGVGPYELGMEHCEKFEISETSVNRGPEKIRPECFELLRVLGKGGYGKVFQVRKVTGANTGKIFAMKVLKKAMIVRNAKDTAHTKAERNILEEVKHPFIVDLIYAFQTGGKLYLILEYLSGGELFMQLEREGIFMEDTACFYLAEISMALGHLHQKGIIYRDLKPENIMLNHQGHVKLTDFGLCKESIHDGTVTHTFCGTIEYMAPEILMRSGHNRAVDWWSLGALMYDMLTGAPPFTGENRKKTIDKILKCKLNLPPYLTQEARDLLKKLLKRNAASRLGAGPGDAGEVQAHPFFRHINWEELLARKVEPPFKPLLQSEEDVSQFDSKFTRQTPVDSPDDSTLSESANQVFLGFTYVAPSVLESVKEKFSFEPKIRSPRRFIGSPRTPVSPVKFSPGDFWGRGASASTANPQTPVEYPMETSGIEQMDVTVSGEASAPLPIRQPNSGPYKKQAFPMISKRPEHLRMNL

Test [1] deals with BMAL1 (mouse (endogenous in mouse adult lung fibroblasts)) (UniProt Q9WTL8). Put plainly: co-IP; WT cells synchronised by a 2-h dexamethasone pulse and harvested 12 and 24 h after the medium change; BMAL1 immunoprecipitated, Western blot for BMAL1, S6K and eIF4.
Test [2] has the same target. Put plainly: condition: only in cells without CRY1 and CRY2 (CKO); co-IP; CRY-deficient (CKO) cells synchronised by a 2-h dexamethasone pulse and harvested 12 and 24 h after the medium change; BMAL1 immunoprecipitated, Western blot for BMAL1, S6K and eIF4. A general note: A western blot detects proteins with antibodies after separation by electrophoresis.

No constants are given. Whether binding was seen depends on the method and setting. In cells and extracts the contact can be indirect. Some entries that bind do so weakly or less than the wild type.

For S6K1 (from UniProt Q8BSK8 1-525), the binding result is on record as “binds” in test [1] and “no binding” in test [2].
